Experimental data taken from US20090022806A1, “Nanoparticle and polymer formulations for thyroid hormone analogs, antagonists and formulations and uses thereof” (priority 2006, published 2009).

Tested on: phosphorylated ERK1/2 in ECV304 endothelial cells
Assay: MAPK (ERK1/2) activation in ECV304 cells, nuclear pERK1/2 immunoblot
Format: cell-based
Conditions: PD 98059 30 μmol/L or CGP41251 100 nmol/L for 30 minutes before 10^−7 M T4
Experimental: ECV304 endothelial cells were cultured in M199 medium with 0.25% hormone-depleted serum 13 for 2 days. […] Nuclear fractions were pre-pared from all samples by our method reported previously, the proteins separated by polyacrylamide gel electrophoresis, and transferred to membranes for immunoblotting with antibody to phosphorylated ERK 1/2.

CO[C@@H]1[C@H](N(C)C(=O)c2ccccc2)C[C@H]2O[C@]1(C)n1c3ccccc3c3c4c(c5c6ccccc6n2c5c31)C(=O)NC4 [CGP41251]
inhibition of T4-induced ERK1/2 activation: blocked by both inhibitors
